Literature values in patent US10675352B2 (CENTROSE, LLC, priority 2014, dated 2020).
Some results were stated once for a whole list of compounds, not compound by compound.

Details: patients; cited from earlier work

Row | Compound | level causing death relative to the level approved for administration
1 | C[C@H]1O[C@@H](O[C@H]2[C@@H](O)C[C@H](O[C@H]3[C@@H](O)C[C@H](O[C@H]4CC[C@@]5(C)[C@H](CC[C@@H]6[C@@H]5C[C@@H](O)[C@]5(C)[C@@H](C7=CC(=O)OC7)CC[C@]65O)C4)O[C@@H]3C)O[C@@H]2C)C[C@H](O)[C@@H]1O [digoxin] | 2-3 times
2 | C[C@@H]1O[C@@H](O[C@@H]2C=C3CC[C@@H]4[C@H](CC[C@]5(C)[C@@H](c6ccc(=O)oc6)CC[C@]45O)[C@@]3(C)CC2)[C@H](O)[C@H](O)[C@H]1O [proscillaridin] | 2-3 times
